Assay results published in publication PMC9561260.
Results are given in words; binding and its absence hold for the method and conditions named. Binding seen in cells or lysates may run through a third protein. These calls come from enrichment with a bait or labelling near it, and not all partners need be listed. Tags and fused reporters may be left off the sequences shown.

T1: 2× HA-3× FLAG-Eya1 (UniProt P97767)
T1 sequence: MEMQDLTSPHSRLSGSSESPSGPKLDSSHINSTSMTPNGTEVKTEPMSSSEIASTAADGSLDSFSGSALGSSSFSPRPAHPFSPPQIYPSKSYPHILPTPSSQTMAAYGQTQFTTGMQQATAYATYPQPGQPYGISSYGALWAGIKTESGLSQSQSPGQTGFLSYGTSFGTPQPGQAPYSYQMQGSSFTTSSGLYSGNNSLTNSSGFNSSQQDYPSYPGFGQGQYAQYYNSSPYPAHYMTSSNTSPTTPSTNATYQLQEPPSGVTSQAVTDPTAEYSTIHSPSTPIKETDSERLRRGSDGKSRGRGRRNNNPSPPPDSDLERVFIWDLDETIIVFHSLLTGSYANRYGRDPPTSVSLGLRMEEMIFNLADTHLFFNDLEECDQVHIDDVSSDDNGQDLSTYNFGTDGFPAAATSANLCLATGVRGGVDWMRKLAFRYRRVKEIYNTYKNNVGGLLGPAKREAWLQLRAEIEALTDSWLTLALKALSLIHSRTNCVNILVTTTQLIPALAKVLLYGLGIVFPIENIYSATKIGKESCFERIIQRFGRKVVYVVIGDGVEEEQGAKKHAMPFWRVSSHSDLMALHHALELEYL

B1: SCYL1 (protein, UniProt Q96KG9 1-808)
chain: MWFFARDPVRDFPFELIPEPPEGGLPGPWALHRGRKKATGSPVSIFVYDVKPGAEEQTQVAKAAFKRFKTLRHPNILAYIDGLETEKCLHVVTEAVTPLGIYLKARVEAGGLKELEISWGLHQIVKALSFLVNDCSLIHNNVCMAAVFVDRAGEWKLGGLDYMYSAQGNGGGPPRKGIPELEQYDPPELADSSGRVVREKWSADMWRLGCLIWEVFNGPLPRAAALRNPGKIPKTLVPHYCELVGANPKVRPNPARFLQNCRAPGGFMSNRFVETNLFLEEIQIKEPAEKQKFFQELSKSLDAFPEDFCRHKVLPQLLTAFEFGNAGAVVLTPLFKVGKFLSAEEYQQKIIPVVVKMFSSTDRAMRIRLLQQMEQFIQYLDEPTVNTQIFPHVVHGFLDTNPAIREQTVKSMLLLAPKLNEANLNVELMKHFARLQAKDEQGPIRCNTTVCLGKIGSYLSASTRHRVLTSAFSRATRDPFAPSRVAGVLGFAATHNLYSMNDCAQKILPVLCGLTVDPEKSVRDQAFKAIRSFLSKLESVSEDPTQLEEVEKDVHAASSPGMGGAAASWAGWAVTGVSSLTSKLIRSHPTTAPTETNIPQRPTPEGVPAPAPTPVPATPTTSGHWETQEEDKDTAEDSSTADRWDDEDWGSLEQEAESVLAQQDDWSTGGQVSRASQVSNSDHKSSKSPESDWSSWEAEGSWEQGWQEPSSQEPPPDGTRLASEYNWGGPESSDKGDPFATLSARPSTQPRPDSWGEDNWEGLETDSRQVKAELARKKREERRREMEAKRAERKVAKGPMKLGARKLD
B2: SCYL2 (protein, UniProt Q6P3W7 1-929)
chain: MESMLNKLKSTVTKVTADVTSAVMGNPVTREFDVGRHIASGGNGLAWKIFNGTKKSTKQEVAVFVFDKKLIDKYQKFEKDQIIDSLKRGVQQLTRLRHPRLLTVQHPLEESRDCLAFCTEPVFASLANVLGNWENLPSPISPDIKDYKLYDVETKYGLLQVSEGLSFLHSSVKMVHGNITPENIILNKSGAWKIMGFDFCVSSTNPSEQEPKFPCKEWDPNLPSLCLPNPEYLAPEYILSVSCETASDMYSLGTVMYAVFNKGKPIFEVNKQDIYKSFSRQLDQLSRLGSSSLTNIPEEVREHVKLLLNVTPTVRPDADQMTKIPFFDDVGAVTLQYFDTLFQRDNLQKSQFFKGLPKVLPKLPKRVIVQRILPCLTSEFVNPDMVPFVLPNVLLIAEECTKEEYVKLILPELGPVFKQQEPIQILLIFLQKMDLLLTKTPPDEIKNSVLPMVYRALEAPSIQIQELCLNIIPTFANLIDYPSMKNALIPRIKNACLQTSSLAVRVNSLVCLGKILEYLDKWFVLDDILPFLQQIPSKEPAVLMGILGIYKCTFTHKKLGITKEQLAGKVLPHLIPLSIENNLNLNQFNSFISVIKEMLNRLESEHKTKLEQLHIMQEQQKSLDIGNQMNVSEEMKVTNIGNQQIDKVFNNIGADLLTGSESENKEDGLQNKHKRASLTLEEKQKLAKEQEQAQKLKSQQPLKPQVHTPVATVKQTKDLTDTLMDNMSSLTSLSVSTPKSSASSTFTSVPSMGIGMMFSTPTDNTKRNLTNGLNANMGFQTSGFNMPVNTNQNFYSSPSTVGVTKMTLGTPPTLPNFNALSVPPAGAKQTQQRPTDMSALNNLFGPQKPKVSMNQLSQQKPNQWLNQFVPPQGSPTMGSSVMGTQMNVIGQSAFGMQGNPFFNPQNFAQPPTTMTNSSSASNDLKDLFG
B3: MYBBP1A (proto-oncogene MYB-binding protein) (protein, UniProt Q9BQG0 1-1328)
chain: MESRDPAQPMSPGEATQSGARPADRYGLLKHSREFLDFFWDIAKPEQETRLAATEKLLEYLRGRPKGSEMKYALKRLITGLGVGRETARPCYSLALAQLLQSFEDLPLCSILQQIQEKYDLHQVKKAMLRPALFANLFGVLALFQSGRLVKDQEALMKSVKLLQALAQYQNHLQEQPRKALVDILSEVSKATLQEILPEVLKADLNIILSSPEQLELFLLAQQKVPSKLKKLVGSVNLFSDENVPRLVNVLKMAASSVKKDRKLPAIALDLLRLALKEDKFPRFWKEVVEQGLLKMQFWPASYLCFRLLGAALPLLTKEQLHLVMQGDVIRHYGEHVCTAKLPKQFKFAPEMDDYVGTFLEGCQDDPERQLAVLVAFSSVTNQGLPVTPTFWRVVRFLSPPALQGYVAWLRAMFLQPDLDSLVDFSTNNQKKAQDSSLHMPERAVFRLRKWIIFRLVSIVDSLHLEMEEALTEQVARFCLFHSFFVTKKPTSQIPETKHPFSFPLENQAREAVSSAFFSLLQTLSTQFKQAPGQTQGGQPWTYHLVQFADLLLNHSHNVTTVTPFTAQQRQAWDRMLQTLKELEAHSAEARAAAFQHLLLLVGIHLLKSPAESCDLLGDIQTCIRKSLGEKPRRSRTKTIDPQEPPWVEVLVEILLALLAQPSHLMRQVARSVFGHICSHLTPRALQLILDVLNPETSEDENDRVVVTDDSDERRLKGAEDKSEEGEDNRSSESEEESEGEESEEEERDGDVDQGFREQLMTVLQAGKALGGEDSENEEELGDEAMMALDQSLASLFAEQKLRIQARRDEKNKLQKEKALRRDFQIRVLDLVEVLVTKQPENALVLELLEPLLSIIRRSLRSSSSKQEQDLLHKTARIFTHHLCRARRYCHDLGERAGALHAQVERLVQQAGRQPDSPTALYHFNASLYLLRVLKGNTAEGCVHETQEKQKAGTDPSHMPTGPQAASCLDLNLVTRVYSTALSSFLTKRNSPLTVPMFLSLFSRHPVLCQSLLPILVQHITGPVRPRHQACLLLQKTLSMREVRSCFEDPEWKQLMGQVLAKVTENLRVLGEAQTKAQHQQALSSLELLNVLFRTCKHEKLTLDLTVLLGVLQGQQQSLQQGAHSTGSSRLHDLYWQAMKTLGVQRPKLEKKDAKEIPSATQSPISKKRKKKGFLPETKKRKKRKSEDGTPAEDGTPAATGGSQPPSMGRKKRNRTKAKVPAQANGTPTTKSPAPGAPTRSPSTPAKSPKLQKKNQKPSQVNGAPGSPTEPAGQKQHQKALPKKGVLGKSPLSALARKKARLSLVIRSPSLLQSGAKKKAQVRKAGKP
B4: NRF (protein, UniProt O15226 1-690)
chain: MEKILQMAEGIDIGEMPSYDLVLSKPSKGQKRHLSTCDGQNPPKKQAGSKFHARPRFEPVHFVASSSKDERQEDPYGPQTKEVNEQTHFASMPRDIYQDYTQDSFSIQDGNSQYCDSSGFILTKDQPVTANMYFDSGNPAPSTTSQQANSQSTPEPSPSQTFPESVVAEKQYFIEKLTATIWKNLSNPEMTSGSDKINYTYMLTRCIQACKTNPEYIYAPLKEIPPADIPKNKKLLTDGYACEVRCQNIYLTTGYAGSKNGSRDRATELAVKLLQKRIEVRVVRRKFKHTFGEDLVVCQIGMSSYEFPPALKPPEDLVVLGKDASGQPIFNASAKHWTNFVITENANDAIGILNNSASFNKMSIEYKYEMMPNRTWRCRVFLQDHCLAEGYGTKKTSKHAAADEALKILQKTQPTYPSVKSSQCHTGSSPRGSGKKKDIKDLVVYENSSNPVCTLNDTAQFNRMTVEYVYERMTGLRWKCKVILESEVIAEAVGVKKTVKYEAAGEAVKTLKKTQPTVINNLKKGAVEDVISRNEIQGRSAEEAYKQQIKEDNIGNQLLRKMGWTGGGLGKSGEGIREPISVKEQHKREGLGLDVERVNKIAKRDIEQIIRNYARSESHTDLTFSRELTNDERKQIHQIAQKYGLKSKSHGVGHDRYLVVGRKRRKEDLLDQLKQEGQVGHYELVMPQAN
B5: FLYWCH1 (a zinc-finger protein) (protein, UniProt Q4VC44 1-716)
chain: MPLPEPSEQEGESVKAGQEPSPKPGTDVIPAAPRKPREFSKLVLLTASDQDEDGVGSKPQEVHCVLSLEMAGPATLASTLQILPVEEQGGVVQPALEMPEQKCSKLDAAAPQSLEFLRTPFGGRLLVLESFLYKQEKAVGDKVYWKCRQHAELGCRGRAITRGLRATVMRGHCHAPDEQGLEARRQREKLPSLALPEGLGEPQGPEGPGGRVEEPLEGVGPWQCPEEPEPTPGLVLSKPALEEEEAPRALSLLSLPPKKRSILGLGQARPLEFLRTCYGGSFLVHESFLYKREKAVGDKVYWTCRDHALHGCRSRAITQGQRVTVMRGHCHQPDMEGLEARRQQEKAVETLQAGQDGPGSQVDTLLRGVDSLLYRRGPGPLTLTRPRPRKRAKVEDQELPTQPEAPDEHQDMDADPGGPEFLKTPLGGSFLVYESFLYRREKAAGEKVYWTCRDQARMGCRSRAITQGRRVTVMRGHCHPPDLGGLEALRQREKRPNTAQRGSPGGPEFLKTPLGGSFLVYESFLYRREKAAGEKVYWTCRDQARMGCRSRAITQGRRVMVMRRHCHPPDLGGLEALRQREHFPNLAQWDSPDPLRPLEFLRTSLGGRFLVHESFLYRKEKAAGEKVYWMCRDQARLGCRSRAITQGHRIMVMRSHCHQPDLAGLEALRQRERLPTTAQQEDPEKIQVQLCFKTCSPESQQIYGDIKDVRLDGESQ

Molecular target: T1, 2× HA-3× FLAG-Eya1
Test: affinity purification with mass spectrometry; tandem purification of HF-Eya1 from lysate of stable HEK293 cells: anti-FLAG M2 beads, FLAG peptide elution, then anti-HA agarose; 50 mM Tris-HCl pH 7.5, 150 mM NaCl, 0.1% Nonidet P-40, 4°C; 12 bands (B1-B12) cut from a silver-stained gel

binding, binds:
B1, B2, B3, B4, B5
